Experimental findings from paper PMC7819943, “Rice protein-binding microarrays: a tool to detect cis-acting elements near promoter regions in rice” are described below.

Amino acid sequences for entries named in this document (tags omitted).
UniProt Q0JBA9, entry or part of it: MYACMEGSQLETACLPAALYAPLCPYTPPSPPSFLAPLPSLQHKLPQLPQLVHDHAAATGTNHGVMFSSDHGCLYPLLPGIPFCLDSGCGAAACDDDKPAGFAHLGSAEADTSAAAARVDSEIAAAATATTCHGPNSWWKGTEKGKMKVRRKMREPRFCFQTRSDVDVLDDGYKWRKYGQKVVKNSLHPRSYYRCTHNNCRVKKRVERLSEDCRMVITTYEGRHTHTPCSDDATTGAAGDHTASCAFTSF

The other results are listed elsewhere or left out.

The assay addresses OsWRKY34 (Oryza sativa, UniProt Q0JBA9 1-250). Kind of assay: protein-binding microarray (RPBM); PBS, 2% BSA, 51.3 ng/ul salmon testes DNA, 50 uM zinc acetate, 200 nM TF, 25 C, 1 h; high values mean tight binding. Particulars: protein: recombinant; tags: N-terminal polyhistidine and DsRed monomer fusion (pET32a); label: CyDye5-dUTP incorporated in the synthesized complementary strand; 3' TTTTT single-stranded linker to array surface; dsDNA, one strand shown. A digest of the protocol: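 Using Ni–NTA, transcription factors fused N-terminally to polyhistidine and DsRed were purified after expression in E. coli BL21-CodonPlus. These were incubated at 200 nM with a blocked, double-stranded custom Agilent array for 1 h at 25 °C in a buffer containing 50 µM zinc acetate, and the array was washed. The binding signal is per-feature fluorescence intensity (arbitrary units) on an Axon 4000B scanner.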
Regarding “CACTCTCTCTCGCTGTCTTTCTCTCCTTCCATTTCATTTCCGGAGTCACCTAGTGCAG”, the binding signal was 8250 fluorescence intensity (a.u.). The same measure for “AACAAGTGAAGCAACATTTTTCACTAGCAGGCGGGAGGGGCGGAGTCACCTAGTGCAG”: 8520 fluorescence intensity (a.u.); for “TCCTCTTTTCCGATACTGATATTACCAAATTTGGTCGTTACGGAGTCACCTAGTGCAG”: 8890 fluorescence intensity (a.u.); for “GTATAGCCTCTACACCTGTCTGCCTATAAATTCCACACGACGGAGTCACCTAGTGCAG”: 9430 fluorescence intensity (a.u.). The result for “GGGAGTACGTACGTTACGTAGGAGGTGGGGACCGGTGTGGCGGAGTCACCTAGTGCAG” reads 8970 fluorescence intensity (a.u.); that for “AATGTTTAGGATTTAAAGATGTCTTTTGGTGGGTGGGAAACGGAGTCACCTAGTGCAG”, 13200 fluorescence intensity (a.u.). The result for “GGAAGCTAATTATAATCCGACTTAACACCTCTACACGTCACGGAGTCACCTAGTGCAG” reads 9810 fluorescence intensity (a.u.); that for “CCTTTTGTTCACCCACGTTTCTGCCCAACCCTCTCACCCTCGGAGTCACCTAGTGCAG”, 8430 fluorescence intensity (a.u.); that for “GACGCAGGGGTTTGGGATATTTTGATGGATTTCGATGACTCGGAGTCACCTAGTGCAG”, 14200 fluorescence intensity (a.u.).

Consider “TTTTCTGTACGTGAGAACACATTCCAGTGTATACGCCTTCCGGAGTCACCTAGTGCAG”, for which the binding signal was 8680 fluorescence intensity (a.u.). Consider “CTTTTTAAACTGTTTAACGATATATTTTTGTATGAAATATCGGAGTCACCTAGTGCAG”, for which the binding signal is 8230 fluorescence intensity (a.u.).

Consider “ACATTTCCTTTAGTTTTATCGTGTCCATGCTGCTTGTTTCCGGAGTCACCTAGTGCAG”, for which the binding signal is 15800 fluorescence intensity (a.u.). The result for “TGCTTGATTCATCGATCTTACTGATTATTTAATTTGTTTTCGGAGTCACCTAGTGCAG” reads 9700 fluorescence intensity (a.u.); that for “ATTCCTGATTAATCTCCGCAATTCCATCCCGCCGATTCATCGGAGTCACCTAGTGCAG”, 9390 fluorescence intensity (a.u.); that for “GCTGAACTTTTTTTATTTCATTATAAATATATTTTCTTAACGGAGTCACCTAGTGCAG”, 8300 fluorescence intensity (a.u.).

Take “TAGTTTAGTTTAGCCTTTAATTTTGCTTCCTTGCTACTCTCGGAGTCACCTAGTGCAG”: the binding signal was 8380 fluorescence intensity (a.u.). The result for “ATGCCCTCTCCAACCTCCACTCCGTCACATGCTCCGGATCCGGAGTCACCTAGTGCAG” reads 9210 fluorescence intensity (a.u.).

As to “GACTCCATCTTCTTCACGATCTTGTCCAGTACTCCGTATTCGGAGTCACCTAGTGCAG”, the binding signal was 8550 fluorescence intensity (a.u.). On to “GAGATCTTTCCGTTTTGGCCCTTCGGCAAATCCATATTCCCGGAGTCACCTAGTGCAG”, for which the binding signal was 8310 fluorescence intensity (a.u.). The result for “GCAGTTTAGCACCTTTCCTTTTTTTAGCCTCAATACATAGCGGAGTCACCTAGTGCAG” reads 8580 fluorescence intensity (a.u.); that for “TTCTATGTTGTGGTTCTGTGTTTTACACTTCAGTTTTGTTCGGAGTCACCTAGTGCAG”, 8030 fluorescence intensity (a.u.). The result for “CCGTCCCTAGTCAACGTCTTGTCATTGCCGCCCCAAACTCCGGAGTCACCTAGTGCAG” reads 10200 fluorescence intensity (a.u.). For the sequence “GCTCCCCTTGACCGCAACGCGACACGATCCCCACGCTAGCCGGAGTCACCTAGTGCAG”, the binding signal was 8200 fluorescence intensity (a.u.). The same measure for “CTGCTTGTTCTATATTATACATTCCATTACTATGATTTAACGGAGTCACCTAGTGCAG”: 10900 fluorescence intensity (a.u.). As to “GGCAGGTGGCACGTGCTTCTCCTCGTCCTCGTCTCGTCTCCGGAGTCACCTAGTGCAG”, the binding signal is 9110 fluorescence intensity (a.u.).

On to “GCACCGTCCATATTTTTGTTTATATTTATGTTTATTAGTTCGGAGTCACCTAGTGCAG”, for which the binding signal was 11500 fluorescence intensity (a.u.). For “TCTACCAAACAGTGCCCAATACCGGTTTGACCACGCCACTCGGAGTCACCTAGTGCAG”, the binding signal was 9830 fluorescence intensity (a.u.). Regarding “AGTGCGTGATACTACTGCGTATTTCTTGTTTATTCAGATCCGGAGTCACCTAGTGCAG”, the binding signal is 9140 fluorescence intensity (a.u.). Take “ATAATCACACTCAATCTCAGGTTCTTGCTCCACGTACTCCCGGAGTCACCTAGTGCAG”: the binding signal is 9790 fluorescence intensity (a.u.). The same measure for “CGCCGCCGCCGCCGCCGTCCAAGATGGACTGCTTCTTGTCCGGAGTCACCTAGTGCAG”: 8220 fluorescence intensity (a.u.); for “TGGCAGCATCTACCATCTCCTTCCAGCTGATACCCAGCACCGGAGTCACCTAGTGCAG”: 8600 fluorescence intensity (a.u.). As for “CTGCATATTGTTCATCTGGCGAGCCACGTCGATTGTTACACGGAGTCACCTAGTGCAG”, the binding signal is 12500 fluorescence intensity (a.u.). Regarding “GCCACCACGCCGAGAGCCCATCTTGTAGTCATCTCTCGCTCGGAGTCACCTAGTGCAG”, the binding signal was 8760 fluorescence intensity (a.u.).

Turning to “GCAGGAATTTTTTTACCGGTGTTAGGCCCTGTCATCCGAACGGAGTCACCTAGTGCAG”, the binding signal is 8040 fluorescence intensity (a.u.). The result for “CCATCGGCTGCAGTTTTTCCTCCATACTGTCGTCTGTAGCCGGAGTCACCTAGTGCAG” reads 10000 fluorescence intensity (a.u.); that for “CCGCTGCCGCTTCCGCTTCCGCTTCTTCCGTTCTGGAGACCGGAGTCACCTAGTGCAG”, 10400 fluorescence intensity (a.u.); that for “TTTCTCCACTTTTGTCTTACTGTTGCCCCTATAAAGCTAACGGAGTCACCTAGTGCAG”, 9760 fluorescence intensity (a.u.).

Take “TATGATTTGATTGATTTCTGGATCAGATTGCGTCCCTTGCCGGAGTCACCTAGTGCAG”: the binding signal was 8110 fluorescence intensity (a.u.). The same measure for “CCAGAAGAAGCCGTAGATTTTTTTTCTTCCTATCCGGAATCGGAGTCACCTAGTGCAG”: 8670 fluorescence intensity (a.u.).

“CCTATTCGTTCCGTATTTATGACCGATATTATCCATGTTTCGGAGTCACCTAGTGCAG”: the binding signal was 10300 fluorescence intensity (a.u.). The same measure for “CCGACCGTTATATTACTACCCATTGTTACATGTACATTGACGGAGTCACCTAGTGCAG”: 8520 fluorescence intensity (a.u.); for “GTTACACGTGAACGCGGCAGAATTGATTTCCTTGCACCGTCGGAGTCACCTAGTGCAG”: 9280 fluorescence intensity (a.u.).
